Test results: US20060253917A1 (published 2006)

What was measured:
[1] = molecular target: T1, OsMADS6 aa 50-200 (Oryza sativa, UniProt Q6EU39 50-200); experiment: Y2H; output trait library
T1 construct: bait, Gal4 DBD fusion; also called PN20233
T1 sequence: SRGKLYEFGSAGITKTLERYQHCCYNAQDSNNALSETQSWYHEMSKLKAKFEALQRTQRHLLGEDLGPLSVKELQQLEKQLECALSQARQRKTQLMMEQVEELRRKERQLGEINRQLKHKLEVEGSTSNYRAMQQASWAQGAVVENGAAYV
Summary of the method: (§1)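 Protein-protein interactions were detected in an automated, high-throughput yeast two-hybrid assay from Myriad Genetics Inc. (Salt Lake City, Utah), with a bait clone encoding a defined amino-acid fragment of a rice protein screened against the input trait or output trait rice prey library. Interacting proteins were identified by BLAST comparison of the encoding sequences of retrieved prey clones against databases.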

[2] = molecular target: T2, OsHOS59 aa 1-100 (Oryza sativa, UniProt Q94LW4 113-212); experiment: Y2H; output trait library
T2 construct: bait, Gal4 DBD fusion; also called PN20559; O. sativa Homeobox Protein HOS59, Fragment
T2 sequence: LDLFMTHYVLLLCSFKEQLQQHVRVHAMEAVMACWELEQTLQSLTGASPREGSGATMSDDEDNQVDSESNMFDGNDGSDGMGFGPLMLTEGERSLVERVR
Summary of the method: as §1

[3] = molecular target: T3, OsSGT1 aa 200-368 (Oryza sativa, UniProt Q0JL44 200-367); experiment: Y2H; output trait library
T3 construct: bait, Gal4 DBD fusion; also called PN20285
T3 sequence: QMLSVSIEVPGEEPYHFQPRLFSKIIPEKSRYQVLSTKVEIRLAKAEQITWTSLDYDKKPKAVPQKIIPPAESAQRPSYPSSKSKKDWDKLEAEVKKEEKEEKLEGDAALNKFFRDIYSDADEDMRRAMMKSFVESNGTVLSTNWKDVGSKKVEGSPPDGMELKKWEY
Summary of the method: (§2)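 The values record whether an interaction was detected. In an automated, high-throughput yeast two-hybrid screen from Myriad Genetics Inc., rice protein fragments defined by amino-acid range were used as bait against rice prey clone libraries. Full-length genes were identified by BLAST comparison of the sequences encoding the interacting prey fragments against databases.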

[4] = molecular target: T4, PN20115 aa 5-140 (Oryza sativa); experiment: Y2H; output trait library
T4 construct: bait, Gal4 DBD fusion; also called Ring zinc finger protein
T4 chain: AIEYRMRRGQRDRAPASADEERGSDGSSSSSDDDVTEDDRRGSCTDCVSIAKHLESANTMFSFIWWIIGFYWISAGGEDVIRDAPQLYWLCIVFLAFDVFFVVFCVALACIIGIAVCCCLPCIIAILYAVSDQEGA

[5] = molecular target: T5, OsCS aa 316-583 (Oryza sativa, UniProt A2Y0X2 316-583); experiment: Y2H; output trait library
T5 construct: bait, Gal4 DBD fusion; also called PN19707
T5 sequence: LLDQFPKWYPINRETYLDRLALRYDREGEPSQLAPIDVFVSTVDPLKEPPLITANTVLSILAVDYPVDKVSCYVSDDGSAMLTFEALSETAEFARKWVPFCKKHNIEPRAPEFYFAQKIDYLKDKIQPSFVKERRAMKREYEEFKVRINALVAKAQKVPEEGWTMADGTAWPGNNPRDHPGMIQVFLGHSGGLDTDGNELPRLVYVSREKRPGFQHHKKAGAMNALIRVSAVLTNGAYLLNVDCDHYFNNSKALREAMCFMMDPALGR
Summary of the method: as §2

[6] = molecular target: T6, OsMADS45 aa 50-198 (Oryza sativa, UniProt P0C5B0 50-198); experiment: Y2H; input trait library
T6 construct: bait, Gal4 DBD fusion; also called PN20231; O. sativa MADS box protein MADS45
T6 sequence: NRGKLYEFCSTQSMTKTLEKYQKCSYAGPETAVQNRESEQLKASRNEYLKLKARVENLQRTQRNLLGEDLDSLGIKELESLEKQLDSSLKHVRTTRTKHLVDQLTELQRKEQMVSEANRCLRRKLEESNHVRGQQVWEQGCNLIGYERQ
Summary of the method: as §1

[7] = molecular target: T7, OsRAP1B aa 1-150 (Oryza sativa, UniProt Q10CQ1 1-150); experiment: Y2H; input trait library
T7 construct: bait, Gal4 DBD fusion; also called PN20232
T7 sequence: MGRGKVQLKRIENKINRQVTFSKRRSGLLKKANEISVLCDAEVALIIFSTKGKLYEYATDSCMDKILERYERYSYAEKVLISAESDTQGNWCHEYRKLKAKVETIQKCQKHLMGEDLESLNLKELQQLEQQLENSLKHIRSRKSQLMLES
Summary of the method: as §1

[8] = molecular target: T8, Os018989-4003 aa 90-220 (Oryza sativa); experiment: Y2H; input trait library
T8 construct: bait, Gal4 DBD fusion; also called PN21044
T8 chain: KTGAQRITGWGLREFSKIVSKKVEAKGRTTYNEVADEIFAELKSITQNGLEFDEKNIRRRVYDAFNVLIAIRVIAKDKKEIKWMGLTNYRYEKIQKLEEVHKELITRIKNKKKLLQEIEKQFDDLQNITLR
Summary of the method: as §1

B1: OsMADS15 aa 1-176 (other)
chain: MGRGKVQLKRIENKINRQVTFSKRRNGLLKKAHEISVLCDAEVAAIVFSPKGKLYEYATDSRMDKILERYERYSYAEKALISAESESEGNWCHEYRKLKAKIETIQKCHKHLMGEDHESLNLKELQQLEQQLESSLKHIISRKSHLMLESISELQKKERSLQEENKALQKELVERQ
notes: prey, AD fusion; also called PN20842
binding result [1]: binds

B2: OsMYB aa 36-129 (other)
chain: CWRAVPKLAGLLRCGKSCRLRWTNYLRPDLKRGLLSETEEKTVIDLHEQLGNRWSKIASHLPGRTDNEIKNHWNTHIKKKLRKMGIDPVTHKPL
notes: prey, AD fusion; also called PN20689; O. sativa Probable Myb Factor
binding result [2]: binds

B3: PN24060 aa 176-315 (other)
chain: EKGMKEAENVVEAKSSQLESLVSHEGEKTPRPQAVAEGSSKVVPTPVEYTVNDIIDGKTVNAVEGLKVYEGLVNENEKNKILSLLNETKASFRRGGLEAGQTVIIGKRPMKGHGREIIQLGIPIVEGPPEDDYPRETKVE
notes: prey, AD fusion; also called L-aspartase-like protein-like
binding result [3]: binds

B4: PN23221 aa 84-302 (other)
chain: PEPEPKPEPKPEPKPEPKPEPKPYPEPKPEPKPEPKPEPEPKPEPKPEPKPEPKPYPEPKPEPKPEPKPEPKPEPKPKPEPKPHPEPKPDPKPEPKPHPEPEPKPEPKPEPKPHPEPEPKPEPKPEPKPEPKPEPKPEPKPKPKPEPKPKPEPKPYPEPKPKPEPKPEPKPEPKPEPKPEPKPEPKPEPKPEPKPKPEPKPHPKPEPKPEPKPEPKPEP
notes: prey, AD fusion; also called Proline rich protein
binding result [4]: binds

B5: OsPN29118 aa 1-136 (other)
chain: TSSGDQQMVTVAERFPREVSSEAVFRCVRLGPVDQAEAEVAYQTAVSIGGHVFKGILHDVGPEALAVAGGGGASEYHFRLTGDGSSPSTAAAGEAGSGGGGNIIVSSAVVMDPYPTPGPYGAFPAGTPFFHGHPRP
notes: prey, AD fusion; also called Novel Protein PN29118, Fragment
binding result [5]: binds

B6: Os008339 aa 30-178 (other)
chain: SKRRRGLFKKAEELSILCDAEVGLVVFSATGKLFQFASTSMEQIIDRYNSHSKTLQRAEPSQLDLQGEDSSTCARLKEELAETSLRLRQMRGEELHRLNVEQLQELEKSLESGLGSVLKTKSKKILDEIDGLERKRMQLIEENLRLKEQ
notes: prey, AD fusion; also called PN20847; O. sativa OS008339 MADS box transcription factor, fragment
binding result [6]: binds

B7: Os008339 aa 32-162 (other)
chain: RRRGLFKKAEELSILCDAEVGLVVFSATGKLFQFASTSMEQIIDRYNSHSKTLQRAEPSQLDLQGEDSSTCARLKEELAETSLRLRQMRGEELHRLNVEQLQELEKSLESGLGSVLKTKSKKILDEIDGLE
notes: prey, AD fusion; also called PN20847
binding result [7]: binds

B8: OsE2F1 aa 95-276 (other)
chain: SNVGSPLNPPTPVGTCRYDSSLGLLTKKFINLLKQAPDGILDLNNAAETLEVQKRRIYDITNVLEGIGLIEKTLKNRIRWKGLDDSGVELDNGLSALQAEVENLSLKEQALDERISDMREKLRGLTEDENNQRWLYVTEDDIKGLPCFQNETLIAIKAPHGTTLEVPDPDEAGDYLQRRYRI
notes: prey, AD fusion; also called PN19758
binding result [8]: binds
